Assay results reported in publication PMC10825120.

Assays:
Test in all cases: EMSA
[1] = target: T1, MBP-LjNIN (551-878) (Lotus japonicus) (UniProt Q9S7B1); conditions: EMSA: 0.25 µM FAM-DNA, 50 ng/µL poly(dI-dC), 10 mM Tris-HCl pH 7.5, 100 mM KCl, 100 mM NaCl, 1 mM DTT, 2.5% glycerol, 5 mM MgCl2, 25 °C 30 min, 10% polyacrylamide gel, recombinant protein, residues 551-878, protein details: MBP, label: FAM
T1 sequence (looked up): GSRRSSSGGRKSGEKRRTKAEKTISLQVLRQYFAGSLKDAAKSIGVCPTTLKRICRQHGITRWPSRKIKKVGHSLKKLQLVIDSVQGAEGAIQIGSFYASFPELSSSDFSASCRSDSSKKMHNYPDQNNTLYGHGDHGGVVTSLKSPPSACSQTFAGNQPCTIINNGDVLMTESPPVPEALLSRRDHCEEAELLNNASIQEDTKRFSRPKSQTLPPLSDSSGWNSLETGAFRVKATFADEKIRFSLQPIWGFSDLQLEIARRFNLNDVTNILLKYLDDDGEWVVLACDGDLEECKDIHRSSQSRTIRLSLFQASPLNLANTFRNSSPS

[2] = system: MBP-LjNLP4 (564-976) (Lotus japonicus); conditions: EMSA: 0.25 µM FAM-DNA, 50 ng/µL poly(dI-dC), 10 mM Tris-HCl pH 7.5, 100 mM KCl, 100 mM NaCl, 1 mM DTT, 2.5% glycerol, 5 mM MgCl2, 25 °C 30 min, 10% polyacrylamide gel, recombinant protein, protein details: MBP, label: FAM
[3] = system: MBP-LjNLP1 (573-903) (Lotus japonicus); conditions: EMSA: 0.25 µM FAM-DNA, 50 ng/µL poly(dI-dC), 10 mM Tris-HCl pH 7.5, 100 mM KCl, 100 mM NaCl, 1 mM DTT, 2.5% glycerol, 5 mM MgCl2, 25 °C 30 min, 10% polyacrylamide gel, recombinant protein, protein details: MBP, label: FAM

Sequence | binding result [1] | binding result ([2]; less binding than LjNIN) | binding result ([3]; less binding than LjNIN) | binding result ([1]; positive control) | binding result ([2]; positive control) | binding result ([3]; positive control)
CTTCTTCCCCTTTACTCTATTTGAAAAGTCATGATGGT (double strand) [NBS/NRE (LjIMA1pro)] | binds | binds more weakly | binds more weakly |  |  | 
CAAACACGACCCTTTGTCACAACCAAAGGTCCATTGTA (double strand) [NRE (LjNIR1pro)] |  |  |  | binds | binds | binds

For at least one entry, the source does not settle the construct or the ends of the probe. For part of these data: Weaker means in comparison with the reference protein, sequence or condition of that experiment. At least one verdict rests on a figure or table, not on a statement of the authors. For part of these data: Tags and fusion partners may be left off the protein sequences shown.
